Test results reported in the supplement of paper PMC3682954.
Counter-ions that a name gives are not always drawn. ± gives the standard deviation of the averaged measurements. This is one part of the list. Many values rest on one well or one pass, so single values are uncertain.

Test system: RAW 264.7
Test: HMGB1-induced TNF-alpha production relative to HMGB1-stimulated control; higher = more TNF-alpha secretion (less inhibition)
Conditions: stimulus: HMGB1 5 ug/ml, 18 h
[1] = compound concentration: 1 ug/ml

SMILES | HMGB1-induced TNF-alpha production (compound concentration: 3 uM) | HMGB1-induced TNF-alpha production [1]
CCCCCCCCCCCCCCC[C@H](O)[C@H](N)CO (racemic) [DL-erythro-Dihydrosphingosine] | 89.6% | –
COc1cccc(-c2cc(=O)c3ccccc3o2)c1N | 64.2% | –
CC(=O)c1ccc2c(c1)N(CCCN(C)C)c1ccccc1S2 [Acetopromazine maleate salt] | 96.6% | –
CC(=O)c1ccc2c(c1)N(CCCN(C)C)c1ccccc1S2 | 81.3% | –
CN(C)CCOC(C)(c1ccccc1)c1ccccn1 (stereo not given) [Doxylamine succinate] | 81.6 ± 6.9% | –
CN(C)CCOC(C)(c1ccccc1)c1ccccn1 (stereo not given) | 96 ± 25% | –
Oc1c(I)cc(Cl)c2cccnc12 [Clioquinol] | 97% | –
Oc1c(I)cc(Cl)c2cccnc12 | 80.8% | –
CC(C)(C#N)c1cc(Cn2cncn2)cc(C(C)(C)C#N)c1 | 107% | –
CC(C)(C#N)c1cc(Cn2cncn2)cc(C(C)(C)C#N)c1 [Anastrozole] | 102 ± 8.7% | –
COC(=O)Nc1nc2cc(C(=O)c3ccccc3)ccc2[nH]1 [Mebendazol] | 98.4% | –
COC(=O)Nc1nc2cc(C(=O)c3ccccc3)ccc2[nH]1 [Mebendazole] | 119% | –
COC(=O)Nc1nc2cc(C(=O)c3ccccc3)ccc2[nH]1 | 112% | –
CC1(C)S[C@@H]2[C@H](NC(=O)[C@H](NC(=O)N3CCNC3=O)c3ccccc3)C(=O)N2[C@H]1C(=O)O | 87.8% | –
CC1(C)S[C@@H]2[C@H](NC(=O)[C@H](NC(=O)N3CCNC3=O)c3ccccc3)C(=O)N2[C@H]1C(=O)O [Azlocillin sodium salt] | 110% | –
CCCCCCCCCc1ccc(OCCOCCOCCOCCOCCOCCOCCOCCOCCO)cc1 | 85.8% | –
CC(C)c1ccc2oc3nc(N)c(C(=O)O)cc3c(=O)c2c1 | 98.6% | –
NC(=O)c1cc[n+](CC2=C(C(=O)O)N3C(=O)[C@@H](NC(=O)[C@@H](c4ccccc4)S(=O)(=O)[O-])[C@H]3SC2)cc1 | 93.5% | –
CCCCCCc1ccc(O)cc1O.Nc1c2ccccc2nc2ccccc12 | 53.1% | –
CN1CCc2cc(O)c(O)cc2C(c2ccccc2)C1 (stereo not given) | 122% | –
Cc1cc2c(cc1S(N)(=O)=O)S(=O)(=O)CCC2 [Meticrane] | 68.7% | –
Cc1cc2c(cc1S(N)(=O)=O)S(=O)(=O)CCC2 | 80.1% | –

SMILES | HMGB1-induced TNF-alpha production (compound concentration: 3 uM) | HMGB1-induced TNF-alpha production [1]
Nc1nc2c(ncn2[C@@H]2O[C@H](CO)[C@@H](O)[C@H]2O)c(=O)[nH]1 [Guanosine] | – | 73.3%
Clc1cnccn1 [2-Chloropyrazine] | 118% | –
CN1C(C)(C)CCCC1(C)C [Pempidine tartrate] | 109% | –
CN1C(C)(C)CCCC1(C)C | 72.6% | –
Cc1onc(-c2c(Cl)cccc2Cl)c1C(=O)N[C@@H]1C(=O)N2[C@@H]1SC(C)(C)[C@@H]2C(=O)O | 82.4% | –
Cc1onc(-c2c(Cl)cccc2Cl)c1C(=O)N[C@@H]1C(=O)N2[C@@H]1SC(C)(C)[C@@H]2C(=O)O [Dicloxacillin sodium salt] | 58.2% | –
CN(C)/N=N/c1[nH]cnc1C(N)=O [Dacarbazine] | 80.5 ± 27% | –
CN(C)/N=N/c1[nH]cnc1C(N)=O | 85.3 ± 4.7% | –
CCCCCC[C@@H]([C@@H](C)O)n1cnc2c(N)ncnc21 [erythro-9-(2-Hydroxy-3-nonyl)adenine hydrochloride] | 86% | –
C[N+](C)(C)CCCCCC[N+](C)(C)C [Hexamethonium dibromide dihydrate] | 72.4% | –
C[N+](C)(C)CCCCCC[N+](C)(C)C [Hexamethonium dichloride] | 86% | –
C[N+](C)(C)CCCCCC[N+](C)(C)C | 76% | –
C[N+](C)(C)CCCCCC[N+](C)(C)C [Hexamethonium bromide] | 89.3% | –
CC1C(=O)OC2C(O)C34C5CC(C(C)(C)C)C36C(OC(=O)C6O)OC4(C(=O)O5)C12O (stereo not given) [Ginkgolide B] | – | 85.4%
CCCCCCCCc1ccc(-c2ccc(C(=O)O)cc2)cc1 | 111% | –
CC[N+](C)(C)Cc1ccccc1Br | 103% | –
CC[N+](C)(C)Cc1ccccc1Br [Bretylium tosylate] | 103% | –
CC1CC(OC(=O)C(O)c2ccccc2)CC(C)(C)C1 (stereo not given) | 95.7% | –
Cc1oncc1C(=O)Nc1ccc(C(F)(F)F)cc1 [Leflunomide] | 100 ± 6.1% | –
COc1ccc(C(Cl)=C(c2ccc(OC)cc2)c2ccc(OC)cc2)cc1 | 71.7% | –
COc1ccc(C(Cl)=C(c2ccc(OC)cc2)c2ccc(OC)cc2)cc1 [Chlorotrianisene] | 98.4% | –
O=C(O)c1cccnc1Nc1cccc(C(F)(F)F)c1 [Niflumic acid] | 93.6 ± 22% | –

SMILES | HMGB1-induced TNF-alpha production (compound concentration: 3 uM) | HMGB1-induced TNF-alpha production [1]
O=C(O)c1cccnc1Nc1cccc(C(F)(F)F)c1 | 79.4% | –
Cc1cn(C2C=CC(CO)O2)c(=O)[nH]c1=O (stereo not given) [2',3'-didehydro-3'-deoxythymidine] | 77.8% | –
CC(CCc1ccccc1)NCC(O)c1ccc(O)c(C(N)=O)c1 (stereo not given) | 75% | –
CC(CCc1ccccc1)NCC(O)c1ccc(O)c(C(N)=O)c1 (stereo not given) [Labetalol hydrochloride] | 78.5 ± 22% | –
CCOC(=O)[C@H](CCc1ccccc1)N[C@@H](C)C(=O)N1Cc2ccccc2C[C@H]1C(=O)O [Quinapril] | 92.3% | –
CCOC(=O)[C@H](CCc1ccccc1)N[C@@H](C)C(=O)N1Cc2ccccc2C[C@H]1C(=O)O [Quinapril HCl] | 111% | –
CCOC(=O)[C@H](CCc1ccccc1)N[C@@H](C)C(=O)N1Cc2ccccc2C[C@H]1C(=O)O | 95.1% | –
CN(C)CCCN1c2ccccc2Sc2ccccc21 [Promazine hydrochloride] | 106 ± 1.7% | –
CN(C)CCCN1c2ccccc2Sc2ccccc21 | 70.3% | –
Cc1cc(C(C)(C)C)c(O)c(C)c1CC1=NCCN1 | 96.8% | –
Cc1cc(C(C)(C)C)c(O)c(C)c1CC1=NCCN1 [Oxymetazoline hydrochloride] | 90.1 ± 15% | –
Cc1cc(C(C)(C)C)c(O)c(C)c1CC1=NCCN1 [Oxymetazoline] | 86.5% | –
NS(=O)(=O)c1cc(C(=O)O)cc(N2CCCC2)c1Oc1ccccc1 [Piretanide] | 114% | –
Nc1nc2c(ncn2[C@H]2C[C@H](O)[C@@H](CO)O2)c(=O)[nH]1 [2'-Deoxyguanosine hydrate] | – | 75.7%
COc1ccc([C@@H]2CC(=O)c3c(O)cc(O[C@@H]4O[C@H](CO[C@@H]5O[C@@H](C)[C@H](O)[C@@H](O)[C@H]5O)[C@@H](O)[C@H](O)[C@H]4O)cc3O2)cc1O [Hesperidin] | 67.8% | –
COc1ccc([C@@H]2CC(=O)c3c(O)cc(O[C@@H]4O[C@H](CO[C@@H]5O[C@@H](C)[C@H](O)[C@@H](O)[C@H]5O)[C@@H](O)[C@H](O)[C@H]4O)cc3O2)cc1O [Hesperidin, 80%] | – | 77.2%
CC(C)(C(=O)O)c1ccc(C(O)CCCN2CCC(C(O)(c3ccccc3)c3ccccc3)CC2)cc1 (stereo not given) [Fexofenadine hydrochloride] | 81.7% | –
CC(C)(C(=O)O)c1ccc(C(O)CCCN2CCC(C(O)(c3ccccc3)c3ccccc3)CC2)cc1 (stereo not given) | 74.5% | –
CC(C)(C(=O)O)c1ccc(C(O)CCCN2CCC(C(O)(c3ccccc3)c3ccccc3)CC2)cc1 (stereo not given) [Fexofenadine HCl] | 125% | –
CC(N)=NCCCC[C@H](N)C(=O)O [L-N6-(1-Iminoethyl)lysine hydrochloride] | 106% | –
Cc1ccc(O)c(N=Nc2ccccc2)n1 | 113% | –
Cc1c(C)c2c(c(C)c1O)CCC(C)(COc1ccc(CC3SC(=O)NC3=O)cc1)O2 (stereo not given) [Troglitazone] | 82.4 ± 3.3% | –

Reprinted at random: 6 records from the list
SMILES | HMGB1-induced TNF-alpha production (compound concentration: 3 uM) | HMGB1-induced TNF-alpha production [1]
CN(C)CCCN1c2ccccc2Sc2ccccc21 | 70.3% | –
CC(N)=NCCCC[C@H](N)C(=O)O [L-N6-(1-Iminoethyl)lysine hydrochloride] | 106% | –
Cc1c(C)c2c(c(C)c1O)CCC(C)(COc1ccc(CC3SC(=O)NC3=O)cc1)O2 (stereo not given) [Troglitazone] | 82.4 ± 3.3% | –
CC[N+](C)(C)Cc1ccccc1Br | 103% | –
C[N+](C)(C)CCCCCC[N+](C)(C)C [Hexamethonium bromide] | 89.3% | –
CN(C)CCOC(C)(c1ccccc1)c1ccccn1 (stereo not given) | 96 ± 25% | –

Next part

SMILES | HMGB1-induced TNF-alpha production (compound concentration: 3 uM) | HMGB1-induced TNF-alpha production [1]
C[N+]1(C)[C@@H]2CC[C@H]1C[C@@H](OC(=O)C(O)c1ccccc1)C2 (stereo not given in full) | 106% | –
COC(c1ccccc1)(c1ccccc1)[C@H](Oc1nc(C)cc(C)n1)C(=O)O [Ambrisentan] | 92.7% | –
COC(=O)C1=C(C)NC(C)=C(C(=O)OCCN2CCN(C(c3ccccc3)c3ccccc3)CC2)C1c1cccc([N+](=O)[O-])c1 (stereo not given) [Manidipine] | 91.3% | –
COc1ccc2c(c1OC)C(=O)OC2C1c2c(cc3c(c2OC)OCO3)CCN1C [(S,R)-Noscapine] | – | 80.5%
COC(=O)[C@H]1[C@H]2C[C@H]3c4[nH]c5ccccc5c4CCN3C[C@@H]2CC[C@@H]1O [Corynanthine] | – | 77.1%
COC(=O)[C@H]1[C@H]2C[C@H]3c4[nH]c5ccccc5c4CCN3C[C@@H]2CC[C@@H]1O [Corynanthine hydrochloride] | – | 60.9%
CC(=O)Nc1ccccc1 | 87.7% | –
C[N+]1(C)[C@@H]2C[C@@H](OC(=O)C(O)(c3cccs3)c3cccs3)C[C@H]1[C@@H]1O[C@@H]12 [Tiotropium Bromide] | 80.4% | –
CSc1ccc2c(c1)C(N1CCN(C)CC1)Cc1ccccc1S2 (stereo not given) [Methiothepin] | 113% | –
CSc1ccc2c(c1)C(N1CCN(C)CC1)Cc1ccccc1S2 (stereo not given) | 76.3% | –
CSc1ccc2c(c1)C(N1CCN(C)CC1)Cc1ccccc1S2 (stereo not given) [Methiothepin maleate] | 72.2% | –
CSc1ccc2c(c1)C(N1CCN(C)CC1)Cc1ccccc1S2 (stereo not given) [Methiothepin mesylate] | 97.9% | –
CC(C)(C)C(=O)Oc1ccc(S(=O)(=O)Nc2ccccc2C(=O)NCC(=O)O)cc1 [Sivelestat sodium salt hydrate] | 115% | –
C[C@H]1COc2c(C3(N)CC3)c(F)cc3c(=O)c(C(=O)O)cn1c23 | 92.9% | –
C[C@H]1COc2c(C3(N)CC3)c(F)cc3c(=O)c(C(=O)O)cn1c23 [Pazufloxacin] | 74.3% | –
CC(C(=O)O)c1ccc2c(c1)Cc1cccnc1O2 (stereo not given) [Pranoprofen] | 107 ± 8.4% | –
CCCCCCC[N+](CC)(CC)CCCCc1ccc(Cl)cc1 [Clofilium tosylate] | 81.8% | –
CNCCCC1c2ccccc2C=Cc2ccccc21 [Protriptyline hydrochloride] | 100 ± 6% | –
CNCCCC1c2ccccc2C=Cc2ccccc21 | 70.7% | –
